From patent publication US6660833B1 (Harbor-UCLA Research and Education Institute, priority 2000, dated 2003)

Legend:
[1] = general procedure: Fmoc solid-phase peptide synthesis; prederivatized Fmoc-Gly resin (Calbiochem-Nova) or PEG-PA resin (Perceptive Biosystems); HBTU (FastMoc); details: oxidative folding step, on monomer (SEQ ID NO:3), estimated by electrospray MS, freeze dried twice from acetonitrile:10 mM HCl to remove acetate counterions
[2] = Circular Dichroism (CD) determination of secondary structure in membrane mimic environments; format: physicochemical
Protocol: Circular Dichroism (CD) measurements are made with an AVIV 62DS spectropolarimeter (AVIV Associates, Lakewood, N.J.). The AVIV 62DS is fitted with a thermoelectric temperature controller and the sample temperature maintained at 25° C. Peptide-solvent solutions are measured in 0.1 mm light path demountable cells scanned from 250 nm to 195 nm at a rate of 10 nm/min and a sample interval of 0.2 nm. The instrument is routinely calibrated with (+)-10-camphorsulfonic acid (1 mg/ml) and a 1-mm path length cell (Johnson, 1990 Johnson, W. C. J. 1990, “Protein Secondary Structure and Circular Dichroism: A Practical Guide.” Proteins Struct. Funct. Genet. 7:205-214, and the ellipticity expressed as the mean residue ellipticity, θMRE (deg cm^2 dmol^−1). Peptide sample concentrations are determined by quantitative amino acid analysis (UCLA Micro Sequencing Facility, Los Angeles, Calif. The percentage of α-helix conformation in the peptide is estimated using the formalism of Chen et al. Chen YH, Yant JT, Chaus KH. 1974. “Determination of the Helix and β Form of Proteins in Aqueous Solution by Circular Dichroism.” Biochemistry 13:3350-3359. This approach assumes the maximum theoretical ellipticity for a given peptide or protein at 222 nm may be derived from the number of amino acid residues n, and the ellipticity at 222 nm of a helix of infinite length described by Equation (1).
The secondary structure of the SP-B1-25 (Cys-11→Ala-11) variant disulfide linked homodimer is accessed in two different structure promoting membrane mimic environments using Circular Dichroism spectroscopy.
Referring to FIG. 6, when the peptide is added to POPG liposomes (a major lipid component of surfactant lipid) the helical component is similar to that observed in the organic solvent system. […] [Lincomb Perczel, A., Park, K., Fasman, G. D., Analysis of the circular dichroism spectrum of proteins using the convex constraint algorithm: A practical guide. Analytical Biochem 203:83-93, 1992] [Compare Perez-Gil, J., A. Cruz, Casals, C. Solubility of hydrophobic surfactant Structural studies on SP-B and SP-C in aqueous organic solvents and lipids. Biochim. Biophys Acta, 1168:261-270, 1993; Bruni, R., Taeusch, W., and Waring, A., “Surfactant protein SP-B: Lipid interactions of synthetic peptides representing the amino terminal amphipathic domain,” Proc. Nat. Acad. Sci. USA, 88:7451-7455 (1991); Gordon, L. M., Horvath S., Longo, M., Zasadzinski, J. A. N., Taeusch, H. W., Faull, K., Leung, C., and Waring, A. J., “Conformation and molecular topography of the N-terminal segment of surfactant protein B in structure-promoting environments,” Protein Science 5:1662-1675 (1996)].

[3] = POPG surfactant lipid liposomes, FIG. 6

| Substance | oxidative folding yield [1] | beta sheet (deconvolution of CD spectra) [2, 3] | beta turn (deconvolution of CD spectra) [2, 3] | disordered conformations (deconvolution of CD spectra) [2, 3] | helix (deconvolution of CD spectra) [2, 3] | helical conformations (ellipticity at 222 nm, formalism of Chen et al.) ([2]; TFE:phosphate buffer, 1:1, v:v, 25° C., FIG. 5) |
| --- | --- | --- | --- | --- | --- | --- |
| SP-B1-25 (Cys-11→Ala-11) variant disulfide linked homodimer (FPIPLPYCWLARALIKRIQAMIPKG; disulfide-linked homodimer via Cys8; (11)..(11) SP-B 1-25 (Cys-11 > Ala-11) variant; listed as Homo sapiens) | essentially 100% |  |  |  |  |  |
| SP-B1-25 dimer: Synthetic dimer of N-terminal residues 1-25 of human SP-B, Cys 11→Ala 11 variant, disulfide linked at Cys8-Cys8 (FPIPLPYCWLARALIKRIQAMIPKG; disulfide-linked homodimer via Cys8; (11)..(11) SP-B 1-25 (Cys-11 > Ala-11) variant; listed as Homo sapiens) |  | ~17.1% | ~28.2% | ~10.0% | about 44.7% | about 41% |
